The list is a part of this screen's results and no random one: its compounds were picked by chemical class. Other doses and runs of a compound may be missing. T/C is the treated group as % of the vehicle group. For survival time, the PubChem record calls one and a half times the control and up active, and a quarter to a half above the control has no call in these data; cut-offs in other NCI protocols can differ. Schedule codes are those of the source, taken here to give the interval after Q, in days (D) or hours (H), and the number of doses after X. Some T/C values are followed by the survivors on the day toxicity was checked, most often the fifth; without a count or a note in brackets, all were alive then. Some entries were tested several times; the values are given in rising order. Some schedule codes hold Z or #, which are not explained here.
System: L1210 leukemia ip in BDF1 mice, survival T/C
Experiment: NCI In Vivo Anticancer Drug Screen. Data for tumor model L1210 Leukemia (intraperitoneal) in B6D2F1 (BDF1) mice
Conditions: T/C endpoint: mean survival time, higher T/C = longer survival

Structure (SMILES): NC(=O)c1[nH]cnc1/N=N\N(CCCl)CCCl
- T/C (dose: 2.0 mg/kg/injection, schedule: Q#A X Z (ip), vehicle: carboxymethylcellulose (CMC)): 97 % of control [5 of 6 alive]
- T/C (dose: 3.0 mg/kg/injection, schedule: Q#A X Z (ip), vehicle: carboxymethylcellulose (CMC)): 104 % of control
- T/C (dose: 3.2 mg/kg/injection, schedule: Q03HX040 (ip), vehicle: carboxymethylcellulose (CMC)): 117 % of control [7 of 8 alive]
- T/C (dose: 4.0 mg/kg/injection, schedule: Q01DX Z (ip), vehicle: carboxymethylcellulose (CMC)): 113 % of control
- T/C (dose: 4.0 mg/kg/injection, schedule: Q03DX Z (ip), vehicle: carboxymethylcellulose (CMC)): 103 % of control
- T/C (dose: 4.5 mg/kg/injection, schedule: Q#A X Z (ip), vehicle: carboxymethylcellulose (CMC)): 122 % of control
- T/C (dose: 4.69 mg/kg/injection, schedule: Q06HX068 (oral), vehicle: steroid suspending solution): 113 % of control
- T/C (dose: 6.0 mg/kg/injection, schedule: Q01DX006 (iv), vehicle: carboxymethylcellulose (CMC)): 112 % of control
- T/C (dose: 6.0 mg/kg/injection, schedule: Q01DX Z (im), vehicle: carboxymethylcellulose (CMC)): 104 % of control
- T/C (dose: 6.0 mg/kg/injection, schedule: Q01DX Z (ip), vehicle: carboxymethylcellulose (CMC)): 119 % of control
- T/C (dose: 6.0 mg/kg/injection, schedule: Q01DX Z (oral), vehicle: carboxymethylcellulose (CMC)): 112 % of control
- T/C (dose: 6.0 mg/kg/injection, schedule: Q03DX Z (ip), vehicle: carboxymethylcellulose (CMC)): 110 % of control
- T/C (dose: 6.25 mg/kg/injection, schedule: Q01DX017 (ip), vehicle: carboxymethylcellulose (CMC)): 98 % of control
- T/C (dose: 6.25 mg/kg/injection, schedule: Q#A X034 (ip), vehicle: carboxymethylcellulose (CMC)): 102 % of control
- T/C (dose: 6.3 mg/kg/injection, schedule: Q03HX008 (ip), vehicle: carboxymethylcellulose (CMC)): 108 % of control
- T/C (dose: 6.3 mg/kg/injection, schedule: Q03HX040 (ip), vehicle: carboxymethylcellulose (CMC)): 125 % of control
- T/C (dose: 6.3 mg/kg/injection, schedule: Q08DX024 (ip), vehicle: carboxymethylcellulose (CMC)): 117 % of control
- T/C (dose: 6.5 mg/kg/injection, schedule: Q#A X Z (ip), vehicle: carboxymethylcellulose (CMC)): 122 and 151 % of control
- T/C (dose: 9.0 mg/kg/injection, schedule: Q01DX006 (iv), vehicle: carboxymethylcellulose (CMC)): 120 % of control
- T/C (dose: 9.0 mg/kg/injection, schedule: Q01DX Z (im), vehicle: carboxymethylcellulose (CMC)): 118 % of control
- T/C (dose: 9.0 mg/kg/injection, schedule: Q01DX Z (ip), vehicle: carboxymethylcellulose (CMC)): 116 % of control
- T/C (dose: 9.0 mg/kg/injection, schedule: Q01DX Z (oral), vehicle: carboxymethylcellulose (CMC)): 122 % of control
- T/C (dose: 9.0 mg/kg/injection, schedule: Q03DX Z (ip), vehicle: carboxymethylcellulose (CMC)): 107 % of control
- T/C (dose: 9.37 mg/kg/injection, schedule: Q06HX068 (oral), vehicle: steroid suspending solution): 114 % of control
- T/C (dose: 10.0 mg/kg/injection, schedule: Q#A X Z (ip), vehicle: carboxymethylcellulose (CMC)): 236 % of control
- T/C (dose: 12.5 mg/kg/injection, schedule: Q01DX017 (ip), vehicle: carboxymethylcellulose (CMC)): 95 and 112 % of control
- T/C (dose: 12.5 mg/kg/injection, schedule: Q02DX009 (ip), vehicle: carboxymethylcellulose (CMC)): 112 % of control
- T/C (dose: 12.5 mg/kg/injection, schedule: Q03HX008 (ip), vehicle: carboxymethylcellulose (CMC)): 121 % of control
- T/C (dose: 12.5 mg/kg/injection, schedule: Q03HX008 (ip), vehicle: water): 149 % of control
- T/C (dose: 12.5 mg/kg/injection, schedule: Q03HX040 (ip), vehicle: carboxymethylcellulose (CMC)): 208 % of control
- T/C (dose: 12.5 mg/kg/injection, schedule: Q08DX024 (ip), vehicle: carboxymethylcellulose (CMC)): 141 % of control
- T/C (dose: 12.5 mg/kg/injection, schedule: Q#A X034 (ip), vehicle: carboxymethylcellulose (CMC)): 107 % of control
- T/C (dose: 13.0 mg/kg/injection, schedule: Q01DX006 (iv), vehicle: carboxymethylcellulose (CMC)): 130 and 139 % of control
- T/C (dose: 13.0 mg/kg/injection, schedule: Q01DX Z (im), vehicle: carboxymethylcellulose (CMC)): 131 % of control
- T/C (dose: 13.0 mg/kg/injection, schedule: Q01DX Z (ip), vehicle: carboxymethylcellulose (CMC)): 139 and 143 % of control
- T/C (dose: 13.0 mg/kg/injection, schedule: Q01DX Z (oral), vehicle: carboxymethylcellulose (CMC)): 124 % of control
- T/C (dose: 13.0 mg/kg/injection, schedule: Q01DX Z (sc), vehicle: carboxymethylcellulose (CMC)): 115 % of control
- T/C (dose: 13.0 mg/kg/injection, schedule: Q03DX Z (ip), vehicle: carboxymethylcellulose (CMC)): 119 % of control
- T/C (dose: 13.5 mg/kg/injection, schedule: Q03HX016 (ip), vehicle: carboxymethylcellulose (CMC)): 180 % of control
- T/C (dose: 16.5 mg/kg/injection, schedule: Q#A X Z (ip), vehicle: carboxymethylcellulose (CMC)): 208 % of control
- T/C (dose: 18.7 mg/kg/injection, schedule: Q01DX009 (oral), vehicle: carboxymethylcellulose (CMC)): 121 % of control
- T/C (dose: 18.75 mg/kg/injection, schedule: Q06HX020 (oral), vehicle: steroid suspending solution): 110 % of control
- T/C (dose: 18.75 mg/kg/injection, schedule: Q06HX068 (oral), vehicle: steroid suspending solution): 155 % of control
- T/C (dose: 20.0 mg/kg/injection, schedule: Q01DX001 (ip), vehicle: carboxymethylcellulose (CMC)): 119 % of control
- T/C (dose: 20.0 mg/kg/injection, schedule: Q01DX006 (iv), vehicle: carboxymethylcellulose (CMC)): 159 and 178 % of control [5 of 6 alive]
- T/C (dose: 20.0 mg/kg/injection, schedule: Q01DX Z (im), vehicle: carboxymethylcellulose (CMC)): 141 % of control
- T/C (dose: 20.0 mg/kg/injection, schedule: Q01DX Z (ip), vehicle: carboxymethylcellulose (CMC)): 331 % of control
- T/C (dose: 20.0 mg/kg/injection, schedule: Q01DX Z (oral), vehicle: carboxymethylcellulose (CMC)): 139 % of control
- T/C (dose: 20.0 mg/kg/injection, schedule: Q01DX Z (sc), vehicle: carboxymethylcellulose (CMC)): 132 % of control
- T/C (dose: 20.0 mg/kg/injection, schedule: Q03DX Z (ip), vehicle: carboxymethylcellulose (CMC)): 134 % of control
- T/C (dose: 21.75 mg/kg/injection, schedule: Q01DX009 (ip), vehicle: other): 151, 152, 166 % of control
- T/C (dose: 22.5 mg/kg/injection, schedule: Q03HX016 (ip), vehicle: carboxymethylcellulose (CMC)): 207 % of control
- T/C (dose: 23.0 mg/kg/injection, schedule: Q01DX017 (ip), vehicle: carboxymethylcellulose (CMC)): 100 % of control
- T/C (dose: 23.0 mg/kg/injection, schedule: Q01DX Z (ip), vehicle: carboxymethylcellulose (CMC)): 110 % of control
- T/C (dose: 25.0 mg/kg/injection, schedule: Q01DX009 (ip), vehicle: carboxymethylcellulose (CMC)): 163 % of control
- T/C (dose: 25.0 mg/kg/injection, schedule: Q01DX009 (ip), vehicle: water): 212 % of control
- T/C (dose: 25.0 mg/kg/injection, schedule: Q01DX017 (ip), vehicle: carboxymethylcellulose (CMC)): 117, 144, 210 % of control
- T/C (dose: 25.0 mg/kg/injection, schedule: Q01DX Z (ip), vehicle: carboxymethylcellulose (CMC)): 173 % of control
- T/C (dose: 25.0 mg/kg/injection, schedule: Q02DX009 (ip), vehicle: carboxymethylcellulose (CMC)): 117, 130, 144 % of control
- T/C (dose: 25.0 mg/kg/injection, schedule: Q03HX008 (ip), vehicle: carboxymethylcellulose (CMC)): 146 % of control
- T/C (dose: 25.0 mg/kg/injection, schedule: Q03HX008 (ip), vehicle: water): 534 % of control
- T/C (dose: 25.0 mg/kg/injection, schedule: Q03HX040 (ip), vehicle: carboxymethylcellulose (CMC)): 235 % of control
